Results from US8318941B2, “Pyridone/hydroxypyridine 11-beta hydroxysteroid dehydrogenase type I inhibitors” (Bristol-Myers Squibb Company, priority 2006, dated 2012).

By UniProt entry, the sequences of proteins in these tests, tags left out.
UniProt P28845, whole entry: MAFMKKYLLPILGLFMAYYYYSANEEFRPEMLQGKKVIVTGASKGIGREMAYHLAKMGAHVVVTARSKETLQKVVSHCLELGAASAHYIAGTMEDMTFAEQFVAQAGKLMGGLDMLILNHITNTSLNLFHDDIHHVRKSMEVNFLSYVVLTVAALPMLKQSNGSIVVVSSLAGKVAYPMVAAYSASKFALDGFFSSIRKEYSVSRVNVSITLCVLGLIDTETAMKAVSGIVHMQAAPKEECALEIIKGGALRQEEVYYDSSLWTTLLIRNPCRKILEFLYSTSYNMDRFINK

Target: 11beta-HSD1 (Homo sapiens, UniProt P28845)
Assay: In vitro inhibition of recombinant human 11beta-HSD1 (microsomal Scintillation Proximity Assay)
Assay type: biochemical
Conditions: read-out: IC50 (concentration of compound required for 50% inhibition of cortisol formation); microsomes from HEK 293 EBNA cells, 250 nM [3H]-cortisone, 500 μM NADPH, pH 6.5, room temperature

Compound | IC50
N#Cc1c(O)nc(SCc2ncccc2O)c2c1CCCC2 | 407 nM
N#Cc1c(O)nc(Cc2ccccc2)c2cc(F)ccc12 | 406 nM
N#Cc1ncccc1CSc1nc(O)c(Cl)c2ccc(Cl)cc12 | 2.02 nM

More lines, now with the values ahead:

IC50 | Compound
2.87 nM and 3.08 nM | N#Cc1c(O)nc(SCc2cccnc2Cl)c2cc(F)ccc12
1.67 nM | N#Cc1c(O)nc(SCc2cccnc2F)c2c1CCCC2

Several values for one entry are separate records, joined by “and”; a condition that tells them apart may be missing. Identical values can stand only once. Structures were worked out from names or drawings and are uncertain.
